Measured data: PubChem BioAssay AID1224828 (NIAID, 2016)
The whole screen tested about 17,000 reagents; below is a part drawn at random. Over the whole deposit, 762 (4.5%) got an active call. 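Active calls include both raised and lowered p65 entry, mostly lowered; wells with fewer than 50 cells lack a z-score.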 The raw values are shown without normalisation. A number with no mark means an inactive call. The numbers tell different reagents against one gene apart. Reagent sequences are not shown.

Aim: 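Regulators linking TLR4 signalling to p65 nuclear translocation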 (primary screen)
Cells: mouse RAW264.7 G9 macrophage reporter cells (GFP-p65, Tnf promoter-mCherry)
Reagent: siRNA pool against mouse genes, 100 nM
Duration: 2 days siRNA transfection, then 40 min LPS before fixation
Challenge: LPS (Salmonella minnesota R595) at 10 ng/ml
Measured: 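Microscopy ratio of nuclear to perinuclear-ring GFP-p65 signal, scaled to the plate median; gene score is the average of two replicate robust z-scores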
Reading the numbers: p65 translocation robust z-score: higher = more nuclear NF-kappaB p65 after LPS than the plate median; nuclear/cytoplasmic p65 ratio: higher = more nuclear NF-kappaB p65
Active means: 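Called active when z exceeds 3.3 or falls under -1.56 (median of Tlr4 controls), giving activity score of at least 50; no calls for control wells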
Meaning of the calls: active = hit (p65 shift raised or lowered); inactive = no clear change

no.	gene	pool no.	p65 translocation robust z-score	nuclear/cytoplasmic p65 ratio, rep 1	nuclear/cytoplasmic p65 ratio, rep 2	low cell count flag
1	Or5p70 (GeneID 258361)	1		1.45	1.24	fewer than 50 cells per well; well left out of scoring
2	Phex (GeneID 18675)	1	-0.23	1.51	1.34	enough cells to score
3	Vps28 (GeneID 66914)	1	-0.55	1.32	1.16	enough cells to score
4	Aftph (GeneID 216549)	1	-1.89 (active)	1.23	1.22	enough cells to score
5	Dnajb11 (GeneID 67838)	1	1.9	1.73	1.6	enough cells to score
6	Irf5 (GeneID 27056)	1	0.04	1.47	1.39	enough cells to score
7	Or8k16 (GeneID 258866)	1	1.81	2.01	1.78	enough cells to score
8	Zmat2 (GeneID 66492)	1		1.26	1.43	fewer than 50 cells per well; well left out of scoring
9	Dbil5 (GeneID 13168)	1	-1.32	1.41	1.33	enough cells to score
10	Liph (GeneID 239759)	1		1.44	1.35	fewer than 50 cells per well; well left out of scoring
11	Canx (GeneID 12330)	1	0.32	1.62	1.7	enough cells to score
12	Or4c100 (GeneID 258523)	1	-0.69	1.55	1.48	enough cells to score
13	Sppl2a (GeneID 66552)	1		1.44	1.49	fewer than 50 cells per well; well left out of scoring
14	Sprr2g (GeneID 20761)	1	0.78	1.6	1.25	enough cells to score
15	Prune1 (GeneID 229589)	1	1.74	1.66	1.79	enough cells to score
16	Kti12 (GeneID 100087)	1	-0.55	1.43	1.4	enough cells to score
17	Mtmr3 (GeneID 74302)	1	-2.15 (active)	1.19	1.08	enough cells to score
18	Plch2 (GeneID 269615)	1		1.16	1.31	fewer than 50 cells per well; well left out of scoring
19	Grcc10 (GeneID 14790)	1		1.42	1.32	fewer than 50 cells per well; well left out of scoring
20	Lrrc49 (GeneID 102747)	1	-0.19	1.52	1.54	enough cells to score
21	Gfap (GeneID 14580)	1	-1.01	1.29	1.25	enough cells to score
22	Srek1 (GeneID 218543)	1	1.03	1.68	1.93	enough cells to score
23	Calr (GeneID 12317)	1	-0.85	1.48	1.49	enough cells to score
24	Prc1 (GeneID 233406)	1		1.45	1.25	fewer than 50 cells per well; well left out of scoring
25	Tes (GeneID 21753)	1		1.16	1.11	fewer than 50 cells per well; well left out of scoring
26	Or4x11 (GeneID 258340)	1	-1.11	1.42	1.3	enough cells to score
27	Sec23b (GeneID 27054)	1	1.58	1.65	1.4	enough cells to score
28	Rpl27 (GeneID 19942)	1	0.01	1.42	1.33	enough cells to score
29	Rtn1 (GeneID 104001)	1	-2.03 (active)	1.12	0.992	enough cells to score
30	9530056K15Rik (GeneID 320650)	1	0.97	1.48	1.68	enough cells to score
31	Actr5 (GeneID 109275)	1	0.13	1.68	1.64	enough cells to score

Limited to “nuclear/cytoplasmic p65 ratio, rep 2” (7 entries from above):
Aftph (GeneID 216549): 1.22 (active)
Dnajb11 (GeneID 67838): 1.6
Irf5 (GeneID 27056): 1.39
Or8k16 (GeneID 258866): 1.78
Zmat2 (GeneID 66492): 1.43
Dbil5 (GeneID 13168): 1.33
Liph (GeneID 239759): 1.35

Continued:
no.	gene	pool no.	p65 translocation robust z-score	nuclear/cytoplasmic p65 ratio, rep 1	nuclear/cytoplasmic p65 ratio, rep 2	low cell count flag
32	Otub1 (GeneID 107260)	1	-0.26	1.47	1.32	enough cells to score
33	Rela (GeneID 19697)	1	-2.42 (active)	1.29	1.07	enough cells to score
34	Ssr4 (GeneID 20832)	1	2.12	1.77	1.95	enough cells to score
35	Nars1 (GeneID 70223)	1	1.02	1.86	1.83	enough cells to score
36	4930539J05Rik (GeneID 319587)	1		1.59	1.73	fewer than 50 cells per well; well left out of scoring
37	Slc8a3 (GeneID 110893)	1	2.83	1.86	1.5	enough cells to score
38	Hgh1 (GeneID 59053)	1	0.68	1.41	1.73	enough cells to score
39	Camkk2 (GeneID 207565)	1	-0.43	1.61	1.34	enough cells to score
40	Mrps5 (GeneID 77721)	1	-2.26 (active)	1.44	1.24	enough cells to score
41	Fam20c (GeneID 80752)	1	-0.73	1.54	1.63	enough cells to score
42	Deptor (GeneID 97998)	1	-0.07	1.51	1.58	enough cells to score
43	Sgcg (GeneID 24053)	1	-0.49	1.41	1.55	enough cells to score
44	Itgb3 (GeneID 16416)	1	-0.64	1.37	1.32	enough cells to score
45	Bfar (GeneID 67118)	1	0.48	1.66	1.71	enough cells to score
46	Tnrc18 (GeneID 231861)	1	0.73	1.74	1.49	enough cells to score
47	Pik3r3 (GeneID 18710)	1	-1.21	1.47	1.25	enough cells to score
48	Mrgpra4 (GeneID 235854)	1	1.73	2.01	1.9	enough cells to score
49	Rln1 (GeneID 19773)	1		1.16	1.41	fewer than 50 cells per well; well left out of scoring
50	Mios (GeneID 252875)	1	1.58	1.8	2.13	enough cells to score
51	Bloc1s1 (GeneID 14533)	1	-0.88	1.37	1.4	enough cells to score
52	Nbeal1 (GeneID 269198)	1	0	1.28	1.53	enough cells to score
53	Taf7 (GeneID 24074)	1	-0.64	1.45	1.41	enough cells to score
54	Gbp2b (GeneID 14468)	1	1.1	1.54	1.55	enough cells to score
55	Htr1f (GeneID 15557)	1	0.71	1.6	1.88	enough cells to score
56	Cngb1 (GeneID 333329)	1	0	1.45	1.99	enough cells to score
57	Cngb1 (GeneID 333329)	2	-1.24	1.24	1.24	enough cells to score
58	Antxr1 (GeneID 69538)	1	-0.09	1.58	1.69	enough cells to score
59	Hoxa10 (GeneID 15395)	1	-0.17	1.41	1.36	enough cells to score
60	Ak4 (GeneID 11639)	1	-0.46	1.58	1.33	enough cells to score
61	Mfap1a (GeneID 67532)	1		1.56	1.23	fewer than 50 cells per well; well left out of scoring
62	Or1j12 (GeneID 258953)	1	-1.45	1.47	1.17	enough cells to score
63	B3gnt5 (GeneID 108105)	1	0.8	1.63	1.71	enough cells to score
64	Fam89b (GeneID 17826)	1	0.92	1.58	1.45	enough cells to score
65	Areg (GeneID 11839)	1	0.72	1.59	1.86	enough cells to score
66	Limd2 (GeneID 67803)	1	1.52	1.72	1.68	enough cells to score
67	Erbb4 (GeneID 13869)	1	0.09	1.73	1.37	enough cells to score
68	Olfr899 (GeneID 258472)	1	-0.58	1.33	1.23	enough cells to score
69	AI854703 (GeneID 243373)	1	-1.51	1.31	1.52	enough cells to score
70	Ube2j2 (GeneID 140499)	1	0.66	1.63	1.57	enough cells to score
71	Thap11 (GeneID 59016)	1		1.51	1.24	fewer than 50 cells per well; well left out of scoring
72	Cnn2 (GeneID 12798)	1	0.44	1.61	1.9	enough cells to score
73	Cox5a (GeneID 12858)	1	0.61	1.67	1.87	enough cells to score
74	Leprot (GeneID 230514)	1	-0.81	1.35	1.3	enough cells to score
75	Lrrc20 (GeneID 216011)	1		1.45	1.22	fewer than 50 cells per well; well left out of scoring
